Measurements from patent publication US8586739B2, “Heterocyclic compounds and their uses” (Amgen Inc., priority 2007, dated 2013).
Read-outs that look alike come from different tables or passages of the source. For at least one compound, name, drawing or mass did not settle the structure.

Columns and labels:
[1] = test system: Class I PI 3-kinases; conditions: cited from earlier work
[2] = test system: neutrophil; conditions: cited from earlier work
[3] = test system: MDA MB468 Forkhead-DiversaGFP cells; assay: Forkhead translocation assay; type: cell-based; conditions: 10 uM, control
[4] = test system: U2OS EGFP-2×FYVE cells; assay: Class III PI(3)P assay; type: cell-based; conditions: 10 uM, control
[5] = test system: CHO-IR-AKT1-EGFP cells; assay: Akt membrane ruffling assay; type: cell-based; conditions: 10 uM, control

O=c1cc(N2CCOCC2)oc2c(-c3ccccc3)cccc12 [LY294002]
IC50 ([1]; read-out: IC50 values against each of these PI 3-kinases): ~1000 nM | neutrophil migration [2]: block | superoxide release [2]: block

COC[C@H]1OC(=O)c2coc3c2[C@@]1(C)C1=C(C3=O)[C@@H]2CCC(=O)[C@@]2(C)C[C@H]1OC(C)=O [wortmannin]
Forkhead localisation [3]: Forkhead is nuclear | PI(3)P on endosomes [4]: PI(3)P depleted from endosomes | IC50 ([1]; read-out: IC50 values against each of the various Class I PI 3-kinases): 1 to 10 nM | AKT localisation [5]: AKT is cytoplasmic | neutrophil migration [2]: block | superoxide release [2]: block
